Assay results taken from PubChem BioAssay AID1439 (NMMLSC, 2008).
Out of some 220,000 compounds screened, about 770 (0.35%) were called active. Inconclusive results, whose numbers are uncertain, are shown with a selection of clear calls. No stated cut-off is given here; in the data, active means binding response below about 49% or above about 150%; inconclusive means no clear call, values can overlap the other calls; inactive means in between.

The chains behind the UniProt entries cited, without tags or fusion partners.
UniProt P09471, whole entry, looked up: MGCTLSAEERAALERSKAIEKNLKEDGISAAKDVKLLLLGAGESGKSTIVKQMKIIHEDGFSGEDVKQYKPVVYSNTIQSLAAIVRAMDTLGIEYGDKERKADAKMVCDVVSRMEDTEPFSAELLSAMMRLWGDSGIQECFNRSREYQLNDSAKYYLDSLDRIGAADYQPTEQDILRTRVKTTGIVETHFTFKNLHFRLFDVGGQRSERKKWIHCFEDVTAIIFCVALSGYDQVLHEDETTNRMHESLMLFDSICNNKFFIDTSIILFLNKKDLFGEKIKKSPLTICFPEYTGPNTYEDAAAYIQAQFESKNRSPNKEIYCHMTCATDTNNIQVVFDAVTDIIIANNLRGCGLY

What follows are molecules tested against Guanine nucleotide-binding protein G(o) subunit alpha (Homo sapiens) (UniProt P09471) (assay: RGS7-Galphao binding modulators, primary screen, biochemical, multiplexed bead flow cytometry (AID 1439;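 further: fluorescent Galphao held in activated GDP-AlF4 state binding bead-coupled RGS7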)). Conditions: at 10 µM, actives lie on both sides.
With `CCN(CC)C(=O)c1ccc(-c2cccs2)s1` the binding response (% of control) was inconclusive: 55.1%. In the case of `COc1ccc(CNC(=O)C2CC(c3cc(C(F)(F)F)cc(C(F)(F)F)c3)=NO2)cc1` (centres undefined), the binding response (% of control) is reported as inconclusive: 94.8%. In the case of `CC(C)Nc1ccc(Nc2ccnc3cc4ccccc4cc23)cc1`, the binding response (% of control) is reported as inconclusive: 42.1%. For `COc1ccc(C2(CNS(=O)(=O)c3ccccc3)CCOCC2)cc1`, the binding response (% of control) was inconclusive: 91.7%. In the case of `COc1ccc(/C=C/C(=O)OCC(=O)Nc2ccc(N3CCOCC3)cc2)cc1OC`, the binding response (% of control) is reported as inconclusive: 89.4%. In the case of `Cc1cc([N+](=O)[O-])nn1CC(=O)Nc1sc2c(c1C(N)=O)CCCC2`, the binding response (% of control) is reported as inconclusive: 103%. With `O=C(O)CCc1nc2ccccc2c(=O)[nH]1` the binding response (% of control) was inconclusive: 142%. With `CC(=O)Cc1nsc(NC(=O)c2ccc(-c3cccc(C(F)(F)F)c3)o2)n1` the binding response (% of control) was inactive: 115%. With `COc1ccc(CNC(=O)COC(=O)c2ccc(Br)cc2)cc1` the binding response (% of control) was inconclusive: 58.1%. For `Cc1nc(S/C(=C/c2ccc(-c3ccc(C(=O)O)cc3)o2)C(=O)O)n[nH]1`, the binding response (% of control) was inconclusive: 106%. `O=C(CN1C(=O)/C(=C\c2cccs2)SC1=S)Nc1cccc(C(=O)O)c1` was tested, and the binding response (% of control) was inconclusive: 101%. In the case of `Cc1ccc(S(=O)(=O)NCc2c(-c3ccccc3)noc2C)cc1`, the binding response (% of control) is reported as inconclusive: 59.8%. In the case of `CC(C)(C)CC(C)(C)NC(=O)c1ccc2snnc2c1`, the binding response (% of control) is reported as inconclusive: 95.4%. In the case of `CCN(CC)CCC(c1ccc(N(C)C)cc1)c1c(OC)cc(OC)c2ccc(=O)oc12` (centres undefined), the binding response (% of control) is reported as inconclusive: 106%. `CC(C)(C)NC(=O)NCC1CCCC1NC(=O)NC(C)(C)C` (centres undefined) was tested, and the binding response (% of control) was inconclusive: 114%. `Cc1ccc(-c2csc3nc4cc(C(N)=O)ccc4c(=O)n23)cc1` was tested, and the binding response (% of control) was inconclusive: 110%. `COc1ccc(CC(=O)Nc2ccc(OC)nc2)cc1` was tested, and the binding response (% of control) was inconclusive: 108%. With `C=CCc1ccccc1OCC(O)CNC(=O)c1ccccc1C(=O)O` (centres undefined) the binding response (% of control) was inconclusive: 97.2%. For `NS(=O)(=O)c1ccc(NNC(=O)c2cccs2)cc1`, the binding response (% of control) was inconclusive: 91.9%. With `COC(=O)c1ccccc1NC(=O)C(=O)NCc1ccncc1` the binding response (% of control) was inconclusive: 99.5%. With `Cc1nonc1-c1ccc2c(c1)OCO2` the binding response (% of control) was inconclusive: 94%. In the case of `NNc1cc([N+](=O)[O-])cc2c1C(=O)N(Cc1ccccc1)S2=O` (centres undefined), the binding response (% of control) is reported as inactive: 99.7%. `CC1(C)CC(N=C2C([N+](=O)[O-])=CC=C3C2=NC2(CCCCC2)N3O)CC(C)(C)N1` was tested, and the binding response (% of control) was inconclusive: 172%. For `Cc1ccc(CN(c2ccc(C(=O)Nc3cccnc3)cc2)S(C)(=O)=O)cc1`, the binding response (% of control) was active: 15.6%. For `COc1ccc(N2CCN(C(=O)CSc3nnc(-c4ccco4)n3C)CC2)cc1`, the binding response (% of control) was inactive: 97.7%. In the case of `Cc1cccc(-c2nc3ccccc3c(=O)n2NC(=O)c2ccc([N+](=O)[O-])c(C)c2)c1`, the binding response (% of control) is reported as inactive: 147%. With `CCOC(=O)c1oc2cc(OCC(=O)OC)ccc2c(=O)c1-c1ccc(OC)c(OC)c1` the binding response (% of control) was inconclusive: 112%. `CCCc1c(C(=O)Nc2ccc(N3CCOCC3)cc2)cnn1-c1ccccc1` was tested, and the binding response (% of control) was inconclusive: 116%. For `O=C(N/N=C/c1cccnc1)c1cccc(N2CCCC2=O)c1`, the binding response (% of control) was inconclusive: 116%. For `Cc1nc2oc3c(=O)[nH]cnc3c2c2c1COC(C)(C)C2`, the binding response (% of control) was inconclusive: 121%. In the case of `Nc1nnn(CC(=O)N/N=C/c2ccc(O)cc2)n1`, the binding response (% of control) is reported as inconclusive: 125%. `COc1cccc(/C=C/C(=O)Nc2ccccc2N2CCOCC2)c1` was tested, and the binding response (% of control) was inactive: 97.6%. With `CC(=O)Nc1ccc(Nc2c3ccccc3nc3ccccc23)cc1` the binding response (% of control) was inconclusive: 104%. In the case of `CCOC(=O)c1cn[nH]c1C(F)(F)F`, the binding response (% of control) is reported as inconclusive: 146%. With `COc1ccc2c(c1)[nH]c1c(=O)n(Cc3ccncc3)cnc12` the binding response (% of control) was inconclusive: 159%. In the case of `COC(=O)CSc1nc(N)c(C#N)c(-c2ccc(O)cc2)c1C#N`, the binding response (% of control) is reported as inconclusive: 112%. `CC(=O)NC(NC(=S)Nc1ccc(N=Nc2ccccc2)cc1)C(Cl)(Cl)Cl` (centres undefined) was tested, and the binding response (% of control) was inactive: 105%. In the case of `Cc1ccc(NC(=S)N2CCC(O)CC2)c(C)c1`, the binding response (% of control) is reported as inconclusive: 125%. `CCCNC(=O)c1ccccc1NC(=O)c1ccccc1SC` was tested, and the binding response (% of control) was inconclusive: 112%. With `COC1=C/C(=C/c2c(N)n3c(nc2=O)sc2cc(S(C)(=O)=O)ccc23)C=CC1=O` the binding response (% of control) was inconclusive: 155%. For `O=C(CSc1nnnn1CCCO)Nc1ccc2c(c1)OCO2`, the binding response (% of control) was inconclusive: 72.1%. In the case of `Cn1cnnc1SCc1ccccc1[N+](=O)[O-]`, the binding response (% of control) is reported as inconclusive: -16.3%. With `O=C1c2ccccc2C(=O)N1CCCCSc1nc2ccccc2c(=O)n1CCCN1CCOCC1` the binding response (% of control) was inconclusive: 95.4%. For `O=C(Cn1nc(-c2nn(CC(=O)c3ccccc3)c3[n+]2CCCCC3)[n+]2c1CCCCC2)c1ccccc1`, the binding response (% of control) was inconclusive: 199%. `NS(=O)(=O)c1cccc(NC(=O)Nc2ccc(Cl)cc2)c1` was tested, and the binding response (% of control) was inconclusive: 114%. In the case of `O=C(CCCSc1nc2ccccc2s1)Nc1nccs1`, the binding response (% of control) is reported as inactive: 96.3%. For `O=C(Nc1ccc(S(=O)(=O)NC2=NCCCCC2)cc1)c1ccc(C(F)(F)F)cc1`, the binding response (% of control) was inconclusive: 121%. `O=C(CNC1CCCCC1)Nc1ccc([N+](=O)[O-])cc1C(=O)Nc1ccccc1F` was tested, and the binding response (% of control) was inconclusive: 102%. With `NS(=O)(=O)c1ccc(CCNC(=O)CSc2nnc3ccccn23)cc1` the binding response (% of control) was inconclusive: 80.7%. `CCOC(=O)CSCC(=O)Nc1c(C(=O)C2CC2)oc2ccccc12` was tested, and the binding response (% of control) was inactive: 94.7%. `O=C(c1cccs1)N1CCc2ccccc21` was tested, and the binding response (% of control) was active: 153% [activator]. In the case of `COc1cc2nc(C(C)(C)C)oc(=O)c2cc1OC`, the binding response (% of control) is reported as inconclusive: 88.8%. In the case of `COc1cc2c(c(OC)c1OC)-c1c(cc(OC)c(OC)c1OC)C[C@](C)(O)[C@@H](C)C2`, the binding response (% of control) is reported as inconclusive: 76.2%. In the case of `O=C(Nc1ccccc1)N1CCCN(Cc2c(F)cccc2Cl)CC1`, the binding response (% of control) is reported as inconclusive: 104%. With `Cc1cc(N2CCCC(C(=O)Nc3cccc4ccccc34)C2)n2ncnc2n1` (centres undefined) the binding response (% of control) was inactive: 109%. In the case of `O=C(O)CNc1ccccc1C(=O)O`, the binding response (% of control) is reported as inconclusive: 99.3%. With `CCOC(=O)C1=C(C)NC(C)=C(C(=O)OCC)C1c1ccco1` the binding response (% of control) was inconclusive: 108%. In the case of `Cc1ccc(NC(=O)c2cccc(OCc3c(C)noc3C)c2)cc1`, the binding response (% of control) is reported as inactive: 98.8%. `CC(C)N1CCN(Cc2nc3c(s2)CCCC3)CC1CCO` (centres undefined) was tested, and the binding response (% of control) was inconclusive: 116%. For `COc1ccc(N(CC(=O)Nc2ccc(F)c(Cl)c2)S(=O)(=O)c2c(C)noc2C)cc1`, the binding response (% of control) was inactive: 100%. `CCC(C)c1ccc(NC(=O)COc2c(F)c(F)c(C(F)(F)F)c(F)c2F)cc1` (centres undefined) was tested, and the binding response (% of control) was inactive: 102%. For `O=C(/C=C1\C(=O)Nc2ccccc21)/C=C1\C(=O)Nc2ccccc21`, the binding response (% of control) was inconclusive: 237%. For `O=C(NC1CC1)C1=C[C@H](c2c[nH]c3ccccc23)C[C@H](OCc2ccc(CO)cc2)O1`, the binding response (% of control) was inconclusive: 97.7%. For `NC(=O)CSc1ccc(F)cc1`, the binding response (% of control) was inconclusive: 97%. For `COc1cc2[nH]c(=S)nc(NCCc3ccc(S(N)(=O)=O)cc3)c2cc1OC`, the binding response (% of control) was inconclusive: 101%. In the case of `CC(C(=O)Nc1ccc(S(=O)(=O)N2CCOCC2)cc1)N1C(=O)C2CC=CCC2C1=O` (centres undefined), the binding response (% of control) is reported as inactive: 102%. For `[O-]C1=N/[N+](=C/c2ccccc2)CC1`, the binding response (% of control) was inconclusive: 93.3%. In the case of `Cc1nc2ccccc2c(=O)n1NC(=O)c1ccccc1[N+](=O)[O-]`, the binding response (% of control) is reported as inactive: 114%. For `O=C1c2ccccc2NC(c2ccc3c(c2)OCCO3)N1c1ccc2c(c1)OCCO2` (centres undefined), the binding response (% of control) was inactive: 102%. For `CCC(C)NC(=O)CN(C1CCCCC1)S(C)(=O)=O` (centres undefined), the binding response (% of control) was inconclusive: 107%. `COC(=O)C1(Cc2ccc(O)c(CC3OC3(C)C)c2)OC(=O)C(O)=C1c1ccc(O)cc1` (centres undefined) was tested, and the binding response (% of control) was inconclusive: 101%. With `Cc1ccc(NC(=O)N2CCN(C)CC2)cc1NC(=O)N1CCN(C)CC1` the binding response (% of control) was inconclusive: 316%. With `Nc1nc(Nc2ccccc2)nc(NCc2ccccc2)c1[N+](=O)[O-]` the binding response (% of control) was inconclusive: 128%. `O=C(O)C(C(=O)O)=C1C2CC3CC(C2)CC1C3` was tested, and the binding response (% of control) was inconclusive: 106%. `CC(=O)c1ccc(-n2cc(-c3ccc(C(C)(C)C)cc3)[n+]3c2SCCC3)cc1` was tested, and the binding response (% of control) was inconclusive: 93%. In the case of `C/C=C(\C)C(=O)Nc1cccc(C2=NOC3(C2)C[C@@H](C(N)=O)N(C(=O)c2cc([N+](=O)[O-])cc([N+](=O)[O-])c2C)C3)c1` (some centres undefined), the binding response (% of control) is reported as inconclusive: 121%. `COc1ccccc1-c1cc(N)n(S(=O)(=O)c2cccc3nsnc23)n1` was tested, and the binding response (% of control) was inconclusive: 98.8%. `CSc1ncccc1C(=O)Nc1nnc(C2CC2)s1` was tested, and the binding response (% of control) was inactive: 98.5%. In the case of `C=C1CCN([C@H](C(=O)NCc2ccccc2)C(C)C)S(=O)(=O)c2ccccc21`, the binding response (% of control) is reported as inconclusive: 98.6%. With `COc1ccc(Cl)cc1NC(=S)NCc1cccnc1` the binding response (% of control) was inconclusive: 105%. In the case of `O=C(COc1ccc(Cl)cc1)NCc1nnc(SCC(=O)N2CCCCCC2)o1`, the binding response (% of control) is reported as inactive: 96.6%. `Cc1cc(C)c(C)c(S(=O)(=O)N[C@@H](C)C(=O)OCc2cc(=O)n3cc(Br)ccc3n2)c1C` was tested, and the binding response (% of control) was inconclusive: 81.8%. `Oc1ccc(O)c(-c2cnns2)c1` was tested, and the binding response (% of control) was inactive: 101%. `S=C(NC1CCCCC1)N1CCOCCOCCN(C(=S)NC2CCCCC2)CCOCCOCC1` was tested, and the binding response (% of control) was inconclusive: 91.5%. With `CC(=O)N1CCc2ccc(NC(=O)c3c(-c4c(Cl)cccc4Cl)noc3C)cc21` the binding response (% of control) was inconclusive: 120%. In the case of `CCCCC1=CC2=C(c3ccco3)C(=O)C(C)(OC(=O)c3ccc(OC)cc3)C(=O)C2=CN1CCCOC(C)C` (centres undefined), the binding response (% of control) is reported as inconclusive: 108%. For `OCCC1CN(Cc2ccc(Oc3ncccn3)cc2)CCN1Cc1ccc(F)c(F)c1` (centres undefined), the binding response (% of control) was inconclusive: 121%. With `Cc1cc(C)c(S(C)(=O)=O)c(Oc2cccc(C(F)(F)F)c2)n1` the binding response (% of control) was inactive: 101%. `COC(=O)c1sccc1NC(=O)CC1NCCNC1=O` (centres undefined) was tested, and the binding response (% of control) was inconclusive: 24.8%.
